From PMC3877299
No constants are given. Whether binding was seen depends on the method and setting. In cells and extracts the contact can be indirect. Some results given as binding are weak or reduced against the parent protein; the word gives no strength.

Protein sequences, listed by entry. Tags and fused reporters are not part of them. Residues count along the entry.
UniProt Q9QXX0, residues 34-1218: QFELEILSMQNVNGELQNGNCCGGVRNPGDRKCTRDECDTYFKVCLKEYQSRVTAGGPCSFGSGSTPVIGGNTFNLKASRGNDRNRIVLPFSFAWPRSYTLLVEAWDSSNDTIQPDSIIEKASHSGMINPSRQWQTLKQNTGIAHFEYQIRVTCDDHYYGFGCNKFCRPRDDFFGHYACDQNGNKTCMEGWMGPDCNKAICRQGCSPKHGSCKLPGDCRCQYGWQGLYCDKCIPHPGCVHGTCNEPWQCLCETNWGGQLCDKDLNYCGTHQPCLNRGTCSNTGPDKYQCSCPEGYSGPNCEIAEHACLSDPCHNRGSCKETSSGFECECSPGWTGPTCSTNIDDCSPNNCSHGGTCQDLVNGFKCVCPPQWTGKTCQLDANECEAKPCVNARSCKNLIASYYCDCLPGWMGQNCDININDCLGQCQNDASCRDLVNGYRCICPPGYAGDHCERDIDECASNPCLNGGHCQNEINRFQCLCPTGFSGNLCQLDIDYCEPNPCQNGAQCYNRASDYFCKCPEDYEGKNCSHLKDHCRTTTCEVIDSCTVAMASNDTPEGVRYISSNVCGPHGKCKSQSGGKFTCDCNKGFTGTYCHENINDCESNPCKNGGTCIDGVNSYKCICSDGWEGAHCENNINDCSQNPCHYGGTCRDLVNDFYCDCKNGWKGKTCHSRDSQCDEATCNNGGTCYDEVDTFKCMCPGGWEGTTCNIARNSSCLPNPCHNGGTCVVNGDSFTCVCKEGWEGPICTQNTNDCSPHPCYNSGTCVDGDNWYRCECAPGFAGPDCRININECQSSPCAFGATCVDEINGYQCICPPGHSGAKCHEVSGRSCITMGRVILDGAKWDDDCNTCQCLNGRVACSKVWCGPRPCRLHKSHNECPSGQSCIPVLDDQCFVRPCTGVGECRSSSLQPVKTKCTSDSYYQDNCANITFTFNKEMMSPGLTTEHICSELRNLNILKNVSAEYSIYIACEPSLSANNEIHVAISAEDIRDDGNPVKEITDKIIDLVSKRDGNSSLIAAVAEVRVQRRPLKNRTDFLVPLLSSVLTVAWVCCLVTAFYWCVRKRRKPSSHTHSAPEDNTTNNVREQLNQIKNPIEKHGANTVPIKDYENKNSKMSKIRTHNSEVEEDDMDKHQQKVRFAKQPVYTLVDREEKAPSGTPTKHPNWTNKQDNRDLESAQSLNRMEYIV

Target: Jag1 (mouse (endogenous in C57Bl/6J liver)) (UniProt Q9QXX0)
Assay: co-IP; Jag1 antibody (sc-6011) covalently coupled to AminoLink resin; whole liver lysate of C57Bl/6J mice at 2 weeks of age (PBS, 5 mM EDTA, 1 mM CaCl2, 0.02% sodium azide, protease and phosphatase inhibitors), pre-cleared; binding overnight at 4°C; western blot with Ddr1 antibody

binding: binds
B1: Ddr1 (receptor, UniProt Q03146 20-911)
chain: DADMKGHFDPAKCRYALGMQDRTIPDSDISVSSSWSDSTAARHSRLESSDGDGAWCPAGPVFPKEEEYLQVDLRRLHLVALVGTQGRHAGGLGKEFSRSYRLRYSRDGRRWMDWKDRWGQEVISGNEDPGGVVLKDLGPPMVARLVRFYPRADRVMSVCLRVELYGCLWRDGLLSYTAPVGQTMQLSEVMVHLNDSTYDGYTAGGLQYGGLGQLADGVVGLDDFRQSQELRVWPGYDYVGWSNQSFPTGYVEMEFEFDRLRTFQTMQVHCNNMHTLGARLPGGVECRFKRGPAMAWEGEPVRHALGGSLGDPRARAISVPLGGHVGRFLQCRFLFAGPWLLFSEISFISDVVNDSSDTFPPAPWWPPGPPPTNFSSLELEPRGQQPVAKAEGSPTAILIGCLVAIILLLLLIIALMLWRLHWRRLLSKAERRVLEEELTVHLSVPGDTILINNRPGPREPPPYQEPRPRGTPPHSAPCVPNGSALLLSNPAYRLLLATYARPPRGPGPPTPAWAKPTNTQACSGDYMEPEKPGAPLLPPPPQNSVPHYAEADIVTLQGVTGGNTYAVPALPPGAVGDGPPRVDFPRSRLRFKEKLGEGQFGEVHLCEVEDPQDLVSSDFPISVHKGHPLLVAVKILRPDATKNARNDFLKEVKIMSRLKDPNIIRLLGVCVQDDPLCMITDYMENGDLNQFLSARQLENKATQGLSGDTESDQGPTISYPMLLHVGAQIASGMRYLATLNFVHRDLATRNCLVGENFTIKIADFGMSRNLYAGDYYRVQGRAVLPIRWMAWECILMGKFTTASDVWAFGVTLWEVLMLCRSQPFGQLTDEQVIENAGEFFRDQGRQVYLSRPPACPQTLYELMLRCWSREPEQRPPFAQLHRFLADDALNTV
